Laboratory results from publication PMC6529640, “Bacterioferritin of Magnetospirillum gryphiswaldense Is a Heterotetraeicosameric Complex Composed of Functionally Distinct Subunits but Is Not Involved in Magnetite Biomineralization” (mBio, 2019).
No constants are given. Whether binding was seen depends on the method and setting. Some entries that bind do so weakly or less than the wild type.

The chains behind the UniProt entries cited, without tags or fusion partners.
UniProt A0ACM8UJ62: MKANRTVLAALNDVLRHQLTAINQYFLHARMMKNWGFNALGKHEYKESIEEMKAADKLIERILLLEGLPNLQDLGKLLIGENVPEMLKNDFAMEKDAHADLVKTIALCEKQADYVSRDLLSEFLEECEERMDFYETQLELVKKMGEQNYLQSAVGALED

Legend:
[1] = biological target: Bfr2 (MSR1_27040) of Magnetospirillum gryphiswaldense MSR-1, bacterial two-hybrid fusions (Magnetospirillum gryphiswaldense MSR-1); experiment: two-hybrid; bacterial two-hybrid (T18 and T25 domains of B. pertussis CyaA) in E. coli BTH101; cell suspensions spotted on LB-X-Gal-IPTG, 30°C, 20 h; blue colonies; empty pUT18c and pKNT25 as controls; in the rows the T25 fusion is the binder and the T18 fusion the target
[2] = biological target: Bfr2 of MSR-1 expressed alone from pET-51b-Bfr2 (Magnetospirillum gryphiswaldense MSR-1); experiment: negative-stain transmission electron microscopy; purified protein adsorbed on carbon-coated copper grids, 2% uranyl acetate; diameters of at least 100 particles, compared with horse spleen ferritin; both purified
[3] = biological target: Bfr2 of MSR-1 expressed alone from pET-51b-Bfr2 (Magnetospirillum gryphiswaldense MSR-1); experiment: native gel or EMSA; BN-PAGE of purified proteins on polyacrylamide gradient gels, run at 4°C, Coomassie stained; Bfr2 and Bfr12 ~22 μM, Bfr1 ~30 μM in 50 mM Tris-HCl, 50 mM NaCl, pH 8.0, or Bfr12 dialysed against 50 mM imidazole-HCl, 50 mM NaCl, pH 7; for Bfr12 also a second dimension of SDS-PAGE (2D-BN/SDS-PAGE); both purified

Row | binding [1] | binding [2] | binding [3] | Substance
1 | binds |  |  | Bfr2 (MSR1_27040) of Magnetospirillum gryphiswaldense MSR-1, bacterial two-hybrid fusions (from UniProt A0ACM8UJ62 1-159)
2 |  | binds | binds | Bfr2 of MSR-1 expressed alone from pET-51b-Bfr2 (from UniProt A0ACM8UJ62 1-159)
